Results deposited as PubChem BioAssay AID1259308 (NCATS, 2017).

- Assay: 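Candidate targets for better recombinant protein yield in mammalian cells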 (primary screen)
- Cells: human HEK293 embryonic kidney cells stably expressing firefly luciferase (HEK-CMV-Luc2-Hygro)
- Reagents: single siRNA against human genes, 0.8 pmol siRNA per well
- Duration: 72 h
- Detection: 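Reporter luminescence and viable-cell signal on separate replicate plates, given as percent of non-targeting control and median/MAD z-scores, plus per-cell luciferase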
- Reading the numbers: total luciferase, z-score: higher = more reporter protein produced
- Rule for the call: 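An siRNA counts as active if its total luciferase robust z-score exceeds 3; genes with two or more such siRNAs out of three were retested with fresh siRNAs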
- Meaning of the calls: active = raised luciferase; inactive = no rise
Shown is an unselected part of about 59,000 reagents. About 1,510 of all reagents (2.6%) count as active. 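Calls use total luciferase alone and ignore viability, so some active siRNAs may act by altering cell number.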 Unmarked entries are inactive. The numbers tell different reagents against one gene apart. Further read-outs or replicates are left out here.

Against LSM6 (GeneID 11157) #1, the entry reads total luciferase, z-score -0.0051.
LSM6 (GeneID 11157) #2 showed total luciferase, z-score 0.492.
For LSM6 (GeneID 11157) #3, the entry reads total luciferase, z-score 0.417.
With knock-down of LSM6 (GeneID 11157) #4, the record shows total luciferase, z-score 0.182.
LSM6 (GeneID 11157) #5 scored total luciferase, z-score 0.549.
LSM6 (GeneID 11157) #6 showed total luciferase, z-score 0.969.
Silencing of CCR10 (GeneID 2826) #1 resulted in: total luciferase, z-score -0.375.
Against CCR10 (GeneID 2826) #2, the entry reads total luciferase, z-score 2.13.
Silencing of CCR10 (GeneID 2826) #3 resulted in: total luciferase, z-score 0.056.
Depletion of NOP56 (GeneID 10528) #1 came out at: total luciferase, z-score -1.68.
NOP56 (GeneID 10528) #2 showed total luciferase, z-score -0.867.
For NOP56 (GeneID 10528) #3, the entry reads total luciferase, z-score -1.1.
For ADAM7 (GeneID 8756) #1 the deposit lists total luciferase, z-score 0.459.
Knock-down of ADAM7 (GeneID 8756) #2 came out at: total luciferase, z-score -0.349.
Silencing of ADAM7 (GeneID 8756) #3 came out at: total luciferase, z-score 1.22.
MAP2 (GeneID 4133) #1 gave total luciferase, z-score -0.00818.
With knock-down of MAP2 (GeneID 4133) #2 the results were total luciferase, z-score 0.909.
Depletion of MAP2 (GeneID 4133) #3 gave: total luciferase, z-score 0.0102.
Knock-down of ZMAT1 (GeneID 84460) #1 came out at: total luciferase, z-score -0.736.
After knock-down of ZMAT1 (GeneID 84460) #2, the record shows total luciferase, z-score 0.955.
ZMAT1 (GeneID 84460) #3 showed total luciferase, z-score 0.276.
With knock-down of VPS37D (GeneID 155382) #1, the record shows total luciferase, z-score -0.346.
VPS37D (GeneID 155382) #2 showed total luciferase, z-score -2.39.
Against VPS37D (GeneID 155382) #3, the values are total luciferase, z-score 1.81.
PRPF4BP1 (GeneID 653155) #1 scored total luciferase, z-score 0.154.
Silencing of PRPF4BP1 (GeneID 653155) #2 resulted in: total luciferase, z-score 0.218.
PRPF4BP1 (GeneID 653155) #3 showed total luciferase, z-score -1.6.
GTF2F2P2 (GeneID 728633) #1 gave total luciferase, z-score -1.98.
With knock-down of GTF2F2P2 (GeneID 728633) #2, the record shows total luciferase, z-score -0.789.
With knock-down of GTF2F2P2 (GeneID 728633) #3 the results were total luciferase, z-score -0.409.
For CISH (GeneID 1154) #1, the values are total luciferase, z-score -0.486.
Knock-down of CISH (GeneID 1154) #2 came out at: total luciferase, z-score 0.426.
Against CISH (GeneID 1154) #3, the entry reads total luciferase, z-score 0.156.

Entries above whose gene name starts with G or g:
GTF2F2P2 (GeneID 728633) #1 → total luciferase, z-score: -1.98
GTF2F2P2 (GeneID 728633) #2 → total luciferase, z-score: -0.789
GTF2F2P2 (GeneID 728633) #3 → total luciferase, z-score: -0.409
